Holding throughout (test): log2 fold change, soluble protein after heating vs DMSO (PISA); higher = thermal stabilisation; K562 lysate, 10 uM; active = over 0.2 and 3.5 SD of the protein, either way, in both replicates (recomputed)
Compound in one test: CS(=O)(=O)CCNCc1ccc(-c2ccc3ncnc(Nc4ccc(OCc5cccc(F)c5)c(Cl)c4)c3c2)o1 [lapatinib]
In short, it runs like this: (§1)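 Soluble protein was defined as the supernatant remaining after 21,000xg for 90 min, following pooling of heated aliquots and adjustment to 0.5% NP-40 at 4°C. Before that, crude K562 extract at 1 mg/mL protein in PBS pH 7.4 with 1 mM MgCl2 was treated with 10 μM compound for 30 min and heated for 3 min across 48°C-58°C. Quantification used TMTpro 16plex LC-MS/MS with channel sums equalised, and values are log-two fold changes in thermal stability relative to solvent controls from duplicates.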

By UniProt entry, the sequences of proteins in these tests, tags left out. Where a name states a change or a piece, a line headed by the entry shows the natural chain unless it says otherwise.
UniProt Q9UBS0: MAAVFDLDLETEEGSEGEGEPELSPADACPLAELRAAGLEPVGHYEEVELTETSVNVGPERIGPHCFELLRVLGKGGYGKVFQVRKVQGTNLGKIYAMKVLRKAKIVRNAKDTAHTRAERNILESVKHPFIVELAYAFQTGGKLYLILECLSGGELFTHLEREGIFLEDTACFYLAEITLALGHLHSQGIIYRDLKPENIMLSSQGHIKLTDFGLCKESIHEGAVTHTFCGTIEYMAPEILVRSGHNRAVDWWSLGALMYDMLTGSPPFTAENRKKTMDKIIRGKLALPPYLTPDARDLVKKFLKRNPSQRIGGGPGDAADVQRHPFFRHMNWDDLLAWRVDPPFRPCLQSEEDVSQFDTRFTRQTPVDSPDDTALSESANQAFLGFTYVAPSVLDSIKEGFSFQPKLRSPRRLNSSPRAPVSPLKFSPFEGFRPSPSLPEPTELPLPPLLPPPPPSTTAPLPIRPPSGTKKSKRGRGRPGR
UniProt Q9BWD3: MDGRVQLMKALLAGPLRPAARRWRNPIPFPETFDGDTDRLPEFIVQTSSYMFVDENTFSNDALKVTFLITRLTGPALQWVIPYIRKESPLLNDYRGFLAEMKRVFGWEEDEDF
UniProt Q9NQC3: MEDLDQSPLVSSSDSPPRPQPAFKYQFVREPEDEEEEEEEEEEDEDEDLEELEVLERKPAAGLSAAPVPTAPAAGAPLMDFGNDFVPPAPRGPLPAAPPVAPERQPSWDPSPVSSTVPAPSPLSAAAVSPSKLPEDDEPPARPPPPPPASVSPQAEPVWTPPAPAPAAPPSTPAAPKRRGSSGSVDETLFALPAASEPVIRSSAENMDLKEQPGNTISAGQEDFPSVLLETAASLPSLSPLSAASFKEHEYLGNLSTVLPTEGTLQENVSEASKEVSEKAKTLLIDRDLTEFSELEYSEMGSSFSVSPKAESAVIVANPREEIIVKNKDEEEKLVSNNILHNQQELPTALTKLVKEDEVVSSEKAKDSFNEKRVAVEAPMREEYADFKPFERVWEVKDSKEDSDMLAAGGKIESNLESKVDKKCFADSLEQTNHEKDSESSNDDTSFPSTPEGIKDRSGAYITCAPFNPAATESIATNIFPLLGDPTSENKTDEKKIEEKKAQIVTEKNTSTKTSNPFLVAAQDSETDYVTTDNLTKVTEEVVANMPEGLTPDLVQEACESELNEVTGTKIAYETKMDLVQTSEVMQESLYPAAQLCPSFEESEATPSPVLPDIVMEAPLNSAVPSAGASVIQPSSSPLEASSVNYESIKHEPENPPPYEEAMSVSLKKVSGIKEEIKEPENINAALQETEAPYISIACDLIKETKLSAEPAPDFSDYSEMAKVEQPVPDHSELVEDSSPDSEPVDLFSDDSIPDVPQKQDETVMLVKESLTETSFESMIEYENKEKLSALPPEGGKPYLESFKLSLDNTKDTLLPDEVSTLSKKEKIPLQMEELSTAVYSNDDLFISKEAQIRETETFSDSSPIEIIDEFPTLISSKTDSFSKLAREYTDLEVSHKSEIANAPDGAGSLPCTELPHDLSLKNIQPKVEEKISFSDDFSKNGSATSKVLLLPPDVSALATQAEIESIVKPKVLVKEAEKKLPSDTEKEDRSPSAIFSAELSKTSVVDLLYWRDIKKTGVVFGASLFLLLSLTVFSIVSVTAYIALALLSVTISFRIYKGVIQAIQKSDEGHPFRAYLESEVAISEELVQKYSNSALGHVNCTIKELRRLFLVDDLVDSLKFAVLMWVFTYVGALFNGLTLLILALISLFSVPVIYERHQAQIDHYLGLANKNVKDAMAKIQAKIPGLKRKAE
UniProt Q9UJJ7: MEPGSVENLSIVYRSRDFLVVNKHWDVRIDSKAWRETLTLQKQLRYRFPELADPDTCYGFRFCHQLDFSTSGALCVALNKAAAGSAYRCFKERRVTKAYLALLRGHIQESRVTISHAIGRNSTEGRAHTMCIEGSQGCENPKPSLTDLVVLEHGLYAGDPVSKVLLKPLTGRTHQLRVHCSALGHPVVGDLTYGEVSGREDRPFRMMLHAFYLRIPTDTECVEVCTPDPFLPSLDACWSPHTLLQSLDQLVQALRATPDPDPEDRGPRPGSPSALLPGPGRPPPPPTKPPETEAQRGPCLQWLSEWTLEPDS
UniProt Q96EU6: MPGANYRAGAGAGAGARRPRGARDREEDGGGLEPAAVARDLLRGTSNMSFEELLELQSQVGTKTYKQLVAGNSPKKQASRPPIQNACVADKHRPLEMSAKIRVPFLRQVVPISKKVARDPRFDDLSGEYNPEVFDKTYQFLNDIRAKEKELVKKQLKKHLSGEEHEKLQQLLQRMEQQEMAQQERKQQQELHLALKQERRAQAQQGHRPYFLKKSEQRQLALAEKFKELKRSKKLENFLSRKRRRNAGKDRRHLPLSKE
UniProt Q8WXA3: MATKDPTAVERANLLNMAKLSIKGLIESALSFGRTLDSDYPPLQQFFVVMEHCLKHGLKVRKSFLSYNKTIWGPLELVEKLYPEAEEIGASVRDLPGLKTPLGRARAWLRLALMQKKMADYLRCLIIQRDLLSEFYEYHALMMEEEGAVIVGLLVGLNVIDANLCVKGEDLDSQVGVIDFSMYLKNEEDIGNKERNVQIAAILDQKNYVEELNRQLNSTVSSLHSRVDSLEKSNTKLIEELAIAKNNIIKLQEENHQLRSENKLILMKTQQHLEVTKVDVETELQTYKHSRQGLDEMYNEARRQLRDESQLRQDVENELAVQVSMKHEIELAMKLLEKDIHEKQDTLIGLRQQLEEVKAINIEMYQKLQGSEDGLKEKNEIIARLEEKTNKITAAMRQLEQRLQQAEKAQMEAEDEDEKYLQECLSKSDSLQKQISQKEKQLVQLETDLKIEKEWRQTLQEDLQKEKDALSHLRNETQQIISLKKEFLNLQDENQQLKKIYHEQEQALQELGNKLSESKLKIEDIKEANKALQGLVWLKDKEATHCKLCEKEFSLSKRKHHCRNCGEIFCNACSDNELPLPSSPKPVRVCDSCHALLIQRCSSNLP
UniProt A6ZKI3: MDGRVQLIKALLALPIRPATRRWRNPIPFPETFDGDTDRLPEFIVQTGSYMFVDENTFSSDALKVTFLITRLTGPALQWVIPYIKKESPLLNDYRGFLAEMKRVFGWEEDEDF
UniProt Q9NZ71: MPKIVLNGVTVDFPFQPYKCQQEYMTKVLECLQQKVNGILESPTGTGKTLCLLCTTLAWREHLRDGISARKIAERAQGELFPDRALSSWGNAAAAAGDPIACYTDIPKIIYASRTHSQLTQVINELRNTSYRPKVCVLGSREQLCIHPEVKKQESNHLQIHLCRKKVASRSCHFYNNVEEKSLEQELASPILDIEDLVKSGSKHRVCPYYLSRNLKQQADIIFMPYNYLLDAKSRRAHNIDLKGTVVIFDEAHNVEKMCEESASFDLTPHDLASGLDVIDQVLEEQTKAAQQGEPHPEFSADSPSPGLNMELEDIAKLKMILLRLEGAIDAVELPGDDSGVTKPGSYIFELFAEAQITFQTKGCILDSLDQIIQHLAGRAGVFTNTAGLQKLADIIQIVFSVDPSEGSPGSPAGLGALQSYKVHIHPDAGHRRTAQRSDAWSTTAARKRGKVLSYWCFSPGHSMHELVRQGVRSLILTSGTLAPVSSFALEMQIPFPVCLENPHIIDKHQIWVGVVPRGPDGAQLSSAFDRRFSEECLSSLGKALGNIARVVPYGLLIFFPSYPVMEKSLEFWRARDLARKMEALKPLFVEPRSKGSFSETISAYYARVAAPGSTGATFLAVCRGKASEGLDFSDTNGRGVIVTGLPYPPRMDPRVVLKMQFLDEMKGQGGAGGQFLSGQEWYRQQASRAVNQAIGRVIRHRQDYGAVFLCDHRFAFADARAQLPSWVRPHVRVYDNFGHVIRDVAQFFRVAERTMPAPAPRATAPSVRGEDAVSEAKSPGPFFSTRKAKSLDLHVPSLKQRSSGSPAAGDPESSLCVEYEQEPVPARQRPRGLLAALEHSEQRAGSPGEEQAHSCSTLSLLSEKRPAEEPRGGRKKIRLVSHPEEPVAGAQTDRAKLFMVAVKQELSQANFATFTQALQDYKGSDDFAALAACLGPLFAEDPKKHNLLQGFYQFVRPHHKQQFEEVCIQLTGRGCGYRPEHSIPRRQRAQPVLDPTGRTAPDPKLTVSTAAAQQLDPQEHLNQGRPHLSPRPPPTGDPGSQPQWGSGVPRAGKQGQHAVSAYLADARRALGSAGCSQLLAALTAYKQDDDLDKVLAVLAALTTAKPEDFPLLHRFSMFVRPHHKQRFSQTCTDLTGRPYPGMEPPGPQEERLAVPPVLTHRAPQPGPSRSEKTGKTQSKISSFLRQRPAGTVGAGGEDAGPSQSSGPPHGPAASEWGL
UniProt P19793: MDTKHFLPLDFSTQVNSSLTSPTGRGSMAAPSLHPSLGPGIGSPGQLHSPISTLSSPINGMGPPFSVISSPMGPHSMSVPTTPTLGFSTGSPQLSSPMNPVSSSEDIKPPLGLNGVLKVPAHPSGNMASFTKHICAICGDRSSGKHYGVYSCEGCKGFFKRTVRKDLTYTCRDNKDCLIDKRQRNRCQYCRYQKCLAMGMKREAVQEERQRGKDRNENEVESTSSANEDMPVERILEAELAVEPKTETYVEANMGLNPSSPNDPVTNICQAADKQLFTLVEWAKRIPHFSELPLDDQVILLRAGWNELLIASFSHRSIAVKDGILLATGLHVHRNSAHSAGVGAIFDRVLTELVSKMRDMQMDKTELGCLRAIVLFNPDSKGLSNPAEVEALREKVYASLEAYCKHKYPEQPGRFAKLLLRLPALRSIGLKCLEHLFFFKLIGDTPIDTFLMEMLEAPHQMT
UniProt Q9Y3V2: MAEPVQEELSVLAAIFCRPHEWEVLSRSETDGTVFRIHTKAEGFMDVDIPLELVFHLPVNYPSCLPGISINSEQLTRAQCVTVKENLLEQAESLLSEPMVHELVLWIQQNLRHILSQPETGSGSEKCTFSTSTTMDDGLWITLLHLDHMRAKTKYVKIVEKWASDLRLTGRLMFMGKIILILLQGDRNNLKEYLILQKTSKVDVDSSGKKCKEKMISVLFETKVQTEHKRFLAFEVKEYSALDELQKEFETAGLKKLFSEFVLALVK
UniProt Q9P2E9: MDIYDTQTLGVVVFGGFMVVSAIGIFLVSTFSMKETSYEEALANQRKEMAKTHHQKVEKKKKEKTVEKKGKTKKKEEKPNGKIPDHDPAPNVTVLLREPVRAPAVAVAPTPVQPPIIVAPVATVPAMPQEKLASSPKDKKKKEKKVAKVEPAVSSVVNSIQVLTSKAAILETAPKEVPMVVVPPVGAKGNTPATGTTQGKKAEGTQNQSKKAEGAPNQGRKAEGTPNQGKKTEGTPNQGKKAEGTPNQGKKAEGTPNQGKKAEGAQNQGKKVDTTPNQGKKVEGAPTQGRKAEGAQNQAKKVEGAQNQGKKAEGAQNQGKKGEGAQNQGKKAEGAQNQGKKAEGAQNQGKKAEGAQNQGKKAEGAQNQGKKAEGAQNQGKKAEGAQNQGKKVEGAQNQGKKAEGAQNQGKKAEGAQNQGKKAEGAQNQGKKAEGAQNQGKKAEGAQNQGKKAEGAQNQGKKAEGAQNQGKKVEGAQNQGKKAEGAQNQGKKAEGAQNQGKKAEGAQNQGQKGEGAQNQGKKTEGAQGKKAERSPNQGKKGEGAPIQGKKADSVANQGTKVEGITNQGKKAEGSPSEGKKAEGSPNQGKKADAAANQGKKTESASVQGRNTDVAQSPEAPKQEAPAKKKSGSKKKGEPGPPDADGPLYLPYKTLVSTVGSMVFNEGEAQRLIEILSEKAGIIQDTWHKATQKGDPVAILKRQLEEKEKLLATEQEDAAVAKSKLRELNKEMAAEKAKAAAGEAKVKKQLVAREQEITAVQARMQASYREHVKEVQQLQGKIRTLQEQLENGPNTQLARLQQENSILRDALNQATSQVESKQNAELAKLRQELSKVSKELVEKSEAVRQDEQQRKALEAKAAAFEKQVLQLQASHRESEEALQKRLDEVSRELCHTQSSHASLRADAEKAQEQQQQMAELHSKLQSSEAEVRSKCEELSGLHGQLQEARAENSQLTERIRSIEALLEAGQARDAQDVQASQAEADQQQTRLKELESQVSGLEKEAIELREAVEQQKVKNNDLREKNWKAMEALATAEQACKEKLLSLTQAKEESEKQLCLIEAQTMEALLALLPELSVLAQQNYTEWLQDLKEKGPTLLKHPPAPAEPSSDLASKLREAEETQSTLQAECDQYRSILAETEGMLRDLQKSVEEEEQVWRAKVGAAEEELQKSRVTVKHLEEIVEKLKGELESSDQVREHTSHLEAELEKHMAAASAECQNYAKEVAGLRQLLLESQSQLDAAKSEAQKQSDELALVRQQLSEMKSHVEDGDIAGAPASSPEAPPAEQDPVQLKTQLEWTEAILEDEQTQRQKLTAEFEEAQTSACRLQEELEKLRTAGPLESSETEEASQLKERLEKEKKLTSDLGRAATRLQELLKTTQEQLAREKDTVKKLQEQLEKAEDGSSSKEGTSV

Compound in a further test: C[C@@H](Oc1cc(-c2cnn(C3CCNCC3)c2)cnc1N)c1c(Cl)ccc(F)c1Cl [crizotinib]
In short, it runs like this:
as §1

Compound in test [1]: C[C@H](C1=CC=C(C=C1)C(=O)NC2=C3C=CNC3=NC=C2)N
The procedure, abridged:
as §1

Compound in the next test: C[C@H](Nc1ncnc2nc[nH]c12)c1cc2cccc(Cl)c2c(=O)n1-c1ccccc1 [duvelisib]
In short, it runs like this: as §1

Compound in the next test: Cc1cc(Nc2cc(CN3CCOCC3)c3nc(C)c(Cc4ccc(Cl)cc4F)n3n2)n[nH]1 [gandotinib]
The procedure, abridged:
as §1

Compound in the next test: Cc1cc(Nc2cc(N3CCN(C)CC3)nc(Sc3ccc(NC(=O)C4CC4)cc3)n2)n[nH]1 [tozasertib]
In short, it runs like this:
as §1

Compound in another test: Cc1ccc(-n2nc(C(C)(C)C)cc2NC(=O)Nc2ccc(OCCN3CCOCC3)c3ccccc23)cc1 [doramapimod]
The procedure, abridged:
as §1

Compound in test [2]: Cc1cccc(CC(=O)N2CCc3c2ccc(-c2cn(C)c4ncnc(N)c24)c3F)n1
In short, it runs like this:
as §1

Compound in another test: Cc1cn(-c2cc(NC(=O)c3ccc(C)c(Nc4nccc(-c5cccnc5)n4)c3)cc(C(F)(F)F)c2)cn1 [nilotinib]
In short, it runs like this:
as §1

Compound in test [3]: Cc1nc(Nc2n[nH]c3c2CN(C(=O)N[C@H](CN(C)C)c2ccccc2)C3(C)C)c2sccc2n1
The procedure, abridged: as §1

Compound in the next test: Cc1nc(Nc2ncc(C(=O)Nc3c(C)cccc3Cl)s2)cc(N2CCN(CCO)CC2)n1 [dasatinib]
In short, it runs like this:
as §1

Compound in test [4]: Cc1ncc(-c2ccnc(Nc3ccc(S(C)(=O)=O)cc3)n2)n1C(C)C
The procedure, abridged: as §1

Compound in test [5]: Cn1cc(-c2ccc3c(c2)CCN3C(=O)Cc2cccc(C(F)(F)F)c2)c2c(N)ncnc21
In short, it runs like this:
as §1

Compound in another test: Cn1cc(CNCC2CCN(c3ncc(C(=O)NO)cn3)CC2)c2ccccc21 [quisinostat]
The procedure, abridged:
as §1

Compound in a further test: Cn1cncc1[C@@](N)(c1ccc(Cl)cc1)c1ccc2c(c1)c(-c1cccc(Cl)c1)cc(=O)n2C [tipifarnib]
In short, it runs like this: as §1

Compound in test [6]: NC(=O)Nc1cc(-c2cccc(F)c2)sc1C(=O)N[C@H]1CCCNC1
In short, it runs like this:
as §1

Compound in test [7]: NC(=O)c1cnc(N[C@@H]2CCCC[C@@H]2N)nc1Nc1cccc(-n2nccn2)c1
The procedure, abridged: as §1

Compound in test [8]: NC1(c2ccc(-c3nc4ccn5c(=O)[nH]nc5c4cc3-c3ccccc3)cc2)CCC1
In short, it runs like this:
as §1

Compound in another test: CS(=O)(=O)N1CCN(Cc2cc3nc(-c4cccc5[nH]ncc45)nc(N4CCOCC4)c3s2)CC1 [pictilisib]
The procedure, abridged:
as §1

Compound in the next test: Cc1ccc(NC(=O)c2ccc(CN3CC[C@H](N(C)C)C3)c(C(F)(F)F)c2)cc1Nc1nccc(-c2cncnc2)n1 [bafetinib]
The procedure, abridged: as §1

This is an account of results in the supplement of paper PMC10849652.

The list shows a part of the results.

On to RPS6KB2 (UniProt Q9UBS0), for which the log2 fold change with lapatinib was inactive: 0.05; in the test with crizotinib, inactive: -0.171; in test [1], inactive: 0.236; with duvelisib, inactive: 0.055; with gandotinib it was inactive: -0.19; in the test with tozasertib it was inactive: 0.1. Besides, the log2 fold change with doramapimod was inactive: 0.182; in test [2] it was inactive: -0.011; with nilotinib it was inactive: -0.019; in [3], inactive: 0.035; with dasatinib, inactive: -0.046; in [4] it was inactive: 0.003. Moreover, the log2 fold change is inactive: 0.082 in test [5]; inactive: -0.08 in the test with quisinostat; inactive: -0.05 with tipifarnib; inactive: 0.003 in test [6]; inactive: -0.032 in test [7]; inactive: -0.019 in [8].
Take RPS19 (UniProt M0R2L9): the log2 fold change in the test with crizotinib is inactive: 0.091; in the test with duvelisib, inactive: -0.055; with tozasertib, inactive: 0.064; in the test with doramapimod, inactive: -0.138; in the test with dasatinib it was inactive: -0.077; in test [5] it was inactive: -0.928. Besides, the log2 fold change was inactive: 0.01 with quisinostat, inactive: -0.07 in [6] and inactive: -0.438 in test [8].
Regarding RTL8A (UniProt Q9BWD3), the log2 fold change in the test with crizotinib is inactive: -0.142; in the test with tozasertib, inactive: -0.072; with doramapimod, inactive: -0.02; with quisinostat, inactive: 0.022; in test [6], inactive: 0.042.
Take RTN4 isoform 3 (UniProt Q9NQC3): the log2 fold change with tozasertib was inactive: -0.461.
For the target RPUSD1 (UniProt Q9UJJ7), the log2 fold change in test [1] is inactive: 0.077; with duvelisib, inactive: 0.053; in the test with gandotinib, inactive: 0.031; in the test with tozasertib, inactive: -0.045; in test [2] it was inactive: 0.121; in the test with dasatinib, inactive: -0.186. For the same target, in test [5], the log2 fold change is inactive: -0.097.
RPS3 (UniProt E9PJN9): the log2 fold change with crizotinib is inactive: -0.021; with tozasertib, inactive: -0.052; with doramapimod, inactive: 0.073; in the test with quisinostat, inactive: -0.026; in test [6] it was inactive: 0.
As for RRP36 (UniProt Q96EU6), the log2 fold change in the test with lapatinib is inactive: -0.013; with crizotinib, inactive: -0.013; with duvelisib it was inactive: -0.053; with tozasertib it was inactive: -0.025; with doramapimod, inactive: 0.22; in the test with dasatinib, inactive: 0.06. Besides, the log2 fold change in test [5] is inactive: -0.01; in the test with quisinostat, inactive: -0.068; in test [6], inactive: -0.112; in test [7] it was inactive: 0.106; in test [8], inactive: -0.046.
With RUFY2 isoform 1 (UniProt Q8WXA3), the log2 fold change with pictilisib was active: -0.533; with crizotinib, inactive: -0.015; in test [1] it was inactive: 0.116; with gandotinib, inactive: 0.072; in the test with tozasertib it was inactive: 0.131; with doramapimod it was inactive: -0.136. The log2 fold change with bafetinib was inactive: 0.177; in [2], inactive: -0.099; in the test with nilotinib, inactive: -0.006; in test [3], inactive: 0.02; in test [4] it was inactive: 0.119; in the test with quisinostat, inactive: 0.047. The values for the log2 fold change (with tipifarnib; in [6]) were inactive: 0.177 and inactive: 0.007, respectively.
On to RTL8C (UniProt A6ZKI3), for which the log2 fold change was inactive: -0.003 with crizotinib; inactive: 0.177 with duvelisib; inactive: -0.007 with tozasertib; inactive: -0.107 in the test with doramapimod; inactive: 0.01 in the test with nilotinib; inactive: 0.018 in [3]. Further, the log2 fold change with dasatinib was inactive: -0.067; in test [4], inactive: 0.042; in [5], inactive: -0.06; with quisinostat, inactive: -0.01; with tipifarnib it was inactive: -0.015; in test [6], inactive: 0.061. For the same target, in test [8], the log2 fold change was inactive: 0.076.
As for RTEL1 isoform 2 (UniProt Q9NZ71), the log2 fold change in the test with duvelisib is inactive: -0.101; with nilotinib, inactive: 0.041; in test [3] it was inactive: -0.112; with dasatinib it was inactive: 0.014; in test [4], inactive: -0.162; in [5], inactive: 0.013. Moreover, in the test with tipifarnib, the log2 fold change is inactive: -0.265.
RXRA (UniProt P19793): the log2 fold change is inactive: -0.045 with lapatinib; inactive: -0.062 in the test with crizotinib; inactive: -0.041 in test [1]; inactive: 0 in the test with duvelisib; inactive: -0.047 in the test with gandotinib; inactive: 0.019 with doramapimod. Besides, the log2 fold change is inactive: 0.126 in [2]; inactive: 0.164 in the test with nilotinib; inactive: -0.053 in [3]; inactive: -0.112 with dasatinib; inactive: 0.119 in test [4]; inactive: -0.024 in test [5]. In addition, the log2 fold change was inactive: -0.028 with quisinostat; inactive: 0.011 with tipifarnib; inactive: 0.027 in test [6]; inactive: 0.024 in test [7]; inactive: -0.014 in test [8].
As for RWDD3 (UniProt Q9Y3V2), the log2 fold change with crizotinib was inactive: 0.259; in [1], inactive: 0.142; with duvelisib, inactive: 0.027; with gandotinib, inactive: -0.417; in the test with doramapimod, inactive: -0.007; in [2], inactive: -0.322. Besides, the log2 fold change in the test with dasatinib is inactive: -0.067; in [5], inactive: 0.159; in the test with quisinostat it was inactive: -0.006; in test [6], inactive: -0.018.
In the case of RRBP1 isoform 3 (UniProt Q9P2E9), the log2 fold change was inactive: 0.029 with pictilisib; inactive: -0.054 with crizotinib; inactive: 0.018 with duvelisib; inactive: 0.048 with tozasertib; inactive: 0.083 in the test with doramapimod; inactive: -0.191 with bafetinib. The log2 fold change in the test with dasatinib was inactive: -0.059; in test [5] it was inactive: -0.069; in the test with quisinostat, inactive: 0.054; in test [6] it was inactive: 0.158; in [8] it was inactive: 0.048.
